Data published in patent US11802258B2, “Perfume precursor” (TAKASAGO INTERNATIONAL CORPORATION, priority 2017, dated 2023).

What was measured:
Conditions in all cases: compound released, GC/MS of head space
[1] = tested on: lipase preparation AY “Amano” 30SD; assay: Lipase-induced scent emission test, lipase preparation AY “Amano” 30SD; format: biochemical
Procedure: 10 mg of a fragrance precursor and 1 g of an aqueous 1% lipase preparation solution were put in a vial bottle and mixed and after hermetically sealing the bottle, the mixture was subjected to GC/MS analysis of the head space component to obtain a peak area of the scent-emitting compound. As a control, water was used in place of the aqueous 1% lipase preparation solution, and a peak area of the control was obtained by the same method. The scent emission amount was determined from the difference between the obtained peak area of the scent-emitting compound and the peak area of the control.
(GC/MS Measurement Conditions)
Measurement instrument: 7890GC/5975M (manufactured by Agilent Technologies) • Column: BC-WAX50 m×0.25 mm I.D. • Temperature rise: 70° C. to 220° C., 4° C./min • Split ratio: 60:1

[2] = tested on: Malassezia furfur NBRC0656; assay: Scent emission test by microorganism, Malassezia furfur; format: cell-based
Procedure: Culture of Malassezia furfur Strain NBRC0656:
After inoculating the bacterium in Sabouraud liquid medium containing 0.1% Tween 80, static culture was performed at 28° C. for 3 days under anaerobic conditions, and 3 mL of the resulting preculture solution was transferred to a vial bottle. 10 mg of the fragrance precursor was mixed therewith and after hermetical sealing, static culture was further performed at 28° C. for 3 days.
(§1) A peak area of the scent-emitting compound was obtained by performing GC/MS analysis of the head space component included in the vial bottle containing 3 mL of a microorganism culture solution in which 10 mg of the fragrance precursor was mixed. A microorganism culture solution having not mixed therein the fragrance precursor was used as the control, and a peak area of the control was obtained by the same method. The scent emission amount was determined from the difference between the obtained peak area of the scent-emitting compound and the peak area of the control.
(§2) Measurement instrument: 7890GC/5975MSD (manufactured by Agilent Technologies) • Column: BC-WAX 50 m×0.25 mm I.D. • Temperature rise: 70° C. to 220° C., 4° C./min • Split ratio: splitless

[3] = tested on: Propionibacterium acnes JCM6473; assay: Scent emission test by microorganism, Propionibacterium acnes; format: cell-based
Procedure: Culture of Propionibacterium acnes Strain JCM6473:
After inoculating the bacterium in GAM bouillon liquid medium containing Hemin 0.5 ppm and Menadione 0.5 ppm, static culture was performed at 28° C. for 3 days under anaerobic conditions, and 3 mL of the resulting preculture solution was transferred to a vial bottle. 10 mg of each of the fragrance precursors was mixed therewith and after hermetical sealing, static culture was further performed at 28° C. for 3 days.
as §1, §2

[4] = tested on: Moraxella osloensis ATCC19976; assay: Scent emission test by microorganism, Moraxella osloensis; format: cell-based
Procedure: Culture of Staphylococcus aureus strain NBRC12732, Corynebacterium xerosis strain JCM1324, Pseudomonas aeruginosa strain NBRC13275, and Moraxella osloensis strain ATCC19976:
After inoculating each of bacteria in Muller-Hinton liquid medium, shaking culture was performed at 30° C. for 20 hours, and 3 mL of the resulting preculture solution was transferred to a vial bottle. 10 mg of each of the fragrance precursors was mixed therewith and after hermetical sealing, shaking culture was further performed at 30° C. for 20 hours.
as §1, §2

CC/C=C\CCOC(=O)c1ccccc1O [(Z)-3-hexenyl salicylate]
Scent-Emitting Compound [1]: (Z)-3-hexenol

CC(C)[C@@H]1CC[C@@H](C)C[C@H]1OC(=O)c1ccccc1 [Example 6, (1R,2S,5R)-isopropyl-5-methylcyclohexyl benzoate]
Scent-Emitting Compound [1]: menthol

CC(C)=CCC/C(C)=C/CC[C@H](C)CCOC(=O)c1ccccc1 [Example 7, (S,E)-3,7,11-trimethyl-6,10-dodecadienyl Benzoate]
Scent-Emitting Compound [1]: dihydrofarnesol

COc1ccc(C(=O)OCC[C@@H](C)CC/C=C(\C)CCC=C(C)C)cc1 [Example 8, (S,E)-3,7,11-trimethyl-6,10-dodecadienyl Anisate]
Scent-Emitting Compound [1]: dihydrofarnesol

CC/C=C\CCOC(=O)c1ccccc1 [Example 11, (Z)-3-hexenyl Benzoate]
Scent-Emitting Compound [1]: (Z)-3-hexenol

O=C(C=Cc1ccccc1)OCC=Cc1ccccc1 [cinnamyl cinnamate]
Scent-Emitting Compound [1]: cinnamic alcohol

CC(C)=CCCC(C)CCOC(=O)Cc1ccccc1 (stereo not drawn) [citronellyl phenylacetate]
Scent-Emitting Compound [2]: citronellol
Scent-Emitting Compound [3]: citronellol
Scent-Emitting Compound [4]: citronellol

CC(C)=CCC/C(C)=C/COC(=O)c1ccccc1 [geranyl benzoate]
Scent-Emitting Compound [1]: geraniol

CC(C)=CCC/C(C)=C/COC(=O)Cc1ccccc1 [geranyl phenylacetate]
Scent-Emitting Compound [1]: geraniol

O=C(OCCc1ccccc1)c1ccccc1 [phenylethyl benzoate]
Scent-Emitting Compound [1]: phenylethyl alcohol

O=C(C=Cc1ccccc1)OCCc1ccccc1 [phenylethyl cinnamate]
Scent-Emitting Compound [1]: phenylethyl alcohol

O=C(Cc1ccccc1)OCCc1ccccc1 [phenylethyl phenylacetate]
Scent-Emitting Compound [1]: phenylethyl alcohol

C=C(C)CCC[C@H](C)CCOC(=O)Cc1ccccc1 [rosinyl phenylacetate]
Scent-Emitting Compound [1]: rosinol
